No constants are given. Whether binding was seen depends on the method and setting. Binding seen in cells or lysates may run through a third protein.
Molecular target: T1, CLOCK protein (in the test of the PIWIL2 deletion mutants) (UniProt O15516)
T1 sequence: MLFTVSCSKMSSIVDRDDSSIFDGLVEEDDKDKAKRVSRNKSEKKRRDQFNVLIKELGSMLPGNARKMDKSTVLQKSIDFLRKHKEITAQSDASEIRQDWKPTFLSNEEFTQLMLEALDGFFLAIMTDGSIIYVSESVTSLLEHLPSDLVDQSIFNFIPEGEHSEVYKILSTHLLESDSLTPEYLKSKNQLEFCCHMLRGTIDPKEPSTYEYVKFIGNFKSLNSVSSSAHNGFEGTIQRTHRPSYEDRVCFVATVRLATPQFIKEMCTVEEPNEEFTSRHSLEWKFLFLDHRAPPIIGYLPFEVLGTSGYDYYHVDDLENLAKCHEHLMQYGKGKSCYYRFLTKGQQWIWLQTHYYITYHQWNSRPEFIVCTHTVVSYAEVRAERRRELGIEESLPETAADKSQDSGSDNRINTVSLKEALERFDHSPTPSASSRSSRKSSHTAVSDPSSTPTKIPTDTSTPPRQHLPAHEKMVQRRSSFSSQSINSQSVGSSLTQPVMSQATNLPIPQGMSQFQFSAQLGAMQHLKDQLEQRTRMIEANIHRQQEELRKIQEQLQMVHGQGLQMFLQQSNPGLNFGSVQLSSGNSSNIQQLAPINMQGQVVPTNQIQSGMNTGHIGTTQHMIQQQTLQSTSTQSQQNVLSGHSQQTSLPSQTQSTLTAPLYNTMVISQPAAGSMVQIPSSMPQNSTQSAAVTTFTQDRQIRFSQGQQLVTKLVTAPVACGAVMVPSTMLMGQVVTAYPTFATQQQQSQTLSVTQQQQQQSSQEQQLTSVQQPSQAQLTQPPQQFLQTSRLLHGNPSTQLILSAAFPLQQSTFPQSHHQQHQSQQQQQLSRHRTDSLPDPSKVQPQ
Assay: co-IP; PIWIL2 deletion mutants tested for binding to CLOCK (Figure 2H); cells and precipitating antibody not stated

binding: no binding
Substance: PIWIL2 mutant with a deletion of the PIWI conserved domain (domain or fragment)

Reference: article PMC5589630
